# Test results published in the supplement of paper PMC10735217.
# Structures can show the parent of a compound that is named as a salt. Some of the results follow. Single values are uncertain here, since repeats match poorly.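 Human kidney-derived cells stably carry a construct in which eight TEAD-binding elements drive luciferase, measured by luminescence in a drug-repurposing library screen. A hit is any compound whose signal exceeds the plate mean by more than five robust Z scores.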
# Test system: HEK293A TEAD-LUC reporter
# Experiment: TEAD-luciferase reporter activity (YAP activation), robust Z score vs plate; higher = stronger YAP/TEAD activation
# Settings: 24 h
SMILES,TEAD-luciferase reporter activity (compound concentration: 200 nM),TEAD-luciferase reporter activity (compound concentration: 2 uM),TEAD-luciferase reporter activity (compound concentration: 10 uM)
C[Si](C)(C)c1cccc(C(=O)C(F)(F)F)c1,inactive: -0.744,inactive: -0.64,inactive: -1.98
CCCCCCCCCCCCCCCC(=O)OC[C@H](COP(=O)(O)OCCNC(=O)[C@H](C)NC(=O)CC[C@@H](NC(=O)[C@H](C)NC(=O)[C@@H](C)O[C@H]1[C@H](O)[C@@H](CO)OC(O)[C@@H]1NC(C)=O)C(N)=O)OC(=O)CCCCCCCCCCCCCCC (stereo partly specified) [mifamurtide],inactive: -0.0895,inactive: 0.288,inactive: 0.662
CC(C)C[C@H](NC(=O)[C@H](CCCCN)NC(=O)[C@H](CCCNC(=N)N)NC(=O)[C@H](C)NC(=O)[C@H](CO)NC(=O)[C@H](CCCCN)NC(=O)[C@H](CCCNC(=N)N)NC(=O)[C@H](C)NC(=O)CNC(=O)[C@@H](NC(=O)[C@H](Cc1ccccc1)NC(=O)CNC(=O)CNC(=O)[C@@H](N)Cc1ccccc1)[C@@H](C)O)C(=O)N[C@@H](C)C(=O)N[C@@H](CC(N)=O)C(=O)N[C@@H](CCC(N)=O)C(=O)O [Nociceptin],inactive: -0.918,inactive: -0.98,inactive: 0.733
"CCC[C@@H]1C[C@@H](C(=O)NC(C2O[C@H](SC)[C@H](OP(=O)(O)O)[C@@H](O)[C@H]2O)[C@H](C)Cl)N(C)C1 (stereo partly specified) [clindamycin phosphate, KV]",inactive: 2.44,inactive: -0.692,inactive: -0.0389
COCC1(C)CCCN2CCc3c(oc4ccccc34)C21 (stereo unspecified),inactive: 2.11,inactive: -0.301,inactive: -1.08
C[C@@H]1COCCN1c1cc(C2(S(C)(=O)=O)CC2)nc(-c2cccc3[nH]ccc23)n1,inactive: -0.675,inactive: -1.12,inactive: -0.932
N=C(N)NCCCCCCNC(=O)COC(=O)NCCCCNCCCN [Tresperimus triflutate],inactive: -2.5,inactive: 1.46,inactive: -1.87
O=C1NC(=O)C(Cc2cnc3cc(OCc4ccccc4)ccc3c2)S1 (stereo unspecified),inactive: -0.499,inactive: -0.736,inactive: 0.0316
C#CC[C@@H](C(=O)N[C@H](/C=C/C(=O)OCC)C[C@@H]1CCNC1=O)n1cccc(NC(=O)c2cc(C)on2)c1=O,inactive: -0.0893,inactive: -0.877,inactive: -0.665
Cc1nccnc1-c1ccc(CC(=O)N[C@H](C)c2ccc(OCC(F)(F)F)cn2)cc1,inactive: -0.961,inactive: -2.34,inactive: 3.98
CS(=O)(=O)OCOS(C)(=O)=O,inactive: -0.697,inactive: -1.27,inactive: -0.936
CC(C)c1nc(CN(C)C(=O)N[C@H](C(=O)N[C@H](Cc2ccccc2)C[C@H](O)[C@H](Cc2ccccc2)NC(=O)OCc2cncs2)C(C)C)cs1 [ritonavir],inactive: 1.83,inactive: -0.201,inactive: -1.43
Nc1nc2cc(C(F)(F)F)ccc2n1Cc1ccc(Cl)cc1,inactive: -1.09,inactive: -1.65,inactive: -0.202
NS(=O)(=O)c1cc2c(cc1Cl)N=C(CSCc1ccccc1)NS2(=O)=O,inactive: -0.418,inactive: 1.17,inactive: -1.07
CC(=O)NC(CO)C(O)c1ccc([N+](=O)[O-])cc1 (stereo unspecified),inactive: -0.7,inactive: 1.69,inactive: 0.0536
CO[C@@]1(NC(=O)C(C(=O)[O-])c2ccc(O)cc2)C(=O)N2C(C(=O)[O-])=C(CSc3nnnn3C)CO[C@@H]21 (stereo partly specified) [Latamoxef sodium],–,inactive: -0.924,–
CO[C@@]1(NC(=O)C(C(=O)[O-])c2ccc(O)cc2)C(=O)N2C(C(=O)[O-])=C(CSc3nnnn3C)CO[C@@H]21 (stereo partly specified),inactive: -1.92,–,inactive: 0.704
CCN(CC)CCOC(=O)c1ccc(N)cc1Cl [Chloroprocaine hydrochloride],inactive: -1.21,inactive: 0.677,inactive: 3.55
CO/N=C(\C(=O)N[C@@H]1C(=O)N2C(C(=O)O)=C(COC(C)=O)CS(=O)[C@H]12)c1csc(N)n1 (stereo partly specified),inactive: -2.31,inactive: 1.82,active: 5.84
C=C(C)[C@@H]1CC[C@]2(C(=O)O)CC[C@]3(C)[C@H](CC[C@@H]4[C@@]5(C)CC[C@H](OC(=O)CC(C)(C)C(=O)O)C(C)(C)[C@@H]5CC[C@]43C)[C@@H]12 [Bevirimat dimeglumine],inactive: -2.02,inactive: -0.901,inactive: 0.216
C[n+]1cc2c3c(ccc2c2ccc4cc5c(cc4c21)OCO5)OCO3,inactive: 0.617,–,active: 11.2
C[n+]1cc2c3c(ccc2c2ccc4cc5c(cc4c21)OCO5)OCO3 [Sanguinarium chloride],–,active: 10.4,–
CCc1c(O)c(=O)ccn1CC,inactive: -0.604,inactive: 0.0411,inactive: -1.58
CC(NC(=O)Nc1ccccn1)c1ccc(S(N)(=O)=O)cc1 (stereo unspecified),inactive: -1.21,inactive: 0.527,inactive: 1.73
Cc1cccc(C)c1Nc1ncccc1C(=O)O,inactive: 0.752,inactive: -0.388,inactive: -0.322
CCc1nc(-c2cccc(C)c2)c(-c2ccnc(NC(=O)c3ccccc3)c2)s1,inactive: -1.85,inactive: -1.48,inactive: 0.0625

SMILES,TEAD-luciferase reporter activity (compound concentration: 200 nM),TEAD-luciferase reporter activity (compound concentration: 2 uM),TEAD-luciferase reporter activity (compound concentration: 10 uM)
CCN(CC)CCCOc1ccc(Cl)cc1Cl,inactive: -0.967,inactive: -2.75,inactive: 0.867
Nc1nc(=O)c2c([nH]1)NC[C@H](CCc1ccc(C(=O)N[C@@H](CCC(=O)O)C(=O)O)cc1)C2 [Lometrexol hydrate],inactive: -1.18,inactive: -1.2,inactive: 0.939
CN1C(=O)/C(=N\NC(N)=S)c2ccccc21,inactive: 3.2,inactive: 2.73,inactive: -0.153
CN1CCN(C2=Nc3ccc(F)cc3Nc3sc4ccccc4c32)CC1,inactive: -0.345,inactive: -2.79,inactive: -1.41
Nc1nc2c(ncn2[C@@H]2C[C@H](CO)[C@H]2CO)c(=O)[nH]1 [Lobucavir],inactive: -0.961,inactive: -0.702,inactive: -0.598
NC(=O)c1ncn([C@@H]2O[C@H](CO)[C@@H](O)[C@H]2O)c1O [Mizoribine],inactive: 0.0634,inactive: -0.553,inactive: -0.325
Cc1cccc(CN2CCN(C(c3ccccc3)c3ccc(Cl)cc3)CC2)c1 (stereo unspecified) [Meclizine hydrochloride],inactive: -0.951,–,inactive: -0.829
Cc1cccc(CN2CCN(C(c3ccccc3)c3ccc(Cl)cc3)CC2)c1 (stereo unspecified) [Meclozine hydrochloride],–,inactive: 0.569,–
C/C(=N/NC(=S)NN)c1ccccn1,inactive: -0.666,inactive: -2.09,inactive: -1.43
CC1=C(C(=O)O)N2C(=O)[C@@H](NC(=O)[C@H](N)c3cccc(NS(C)(=O)=O)c3)[C@H]2SC1,inactive: 1.96,inactive: -1.66,inactive: -0.114
COCCN1CCN(Cc2ccc(-c3n[nH]c4c3C(=O)c3c(NC(=O)NN5CCOCC5)cccc3-4)cc2)CC1,inactive: -1.24,inactive: -3.57,inactive: -1.5
NC(=S)N/N=C/c1ncccc1N,inactive: -1.19,inactive: 0.923,inactive: -0.978
CC[C@@H](C)Nc1nc(C)nc2c(-c3ccc(OC)nc3C)c(C)nn12,inactive: -1.05,inactive: -1.58,inactive: -0.583
CCCCCCCCCCCCCCCCCCCCCCCCC(=O)O,inactive: -0.332,inactive: 0.985,inactive: -0.374
CNC(=O)COc1ccccc1OCC(O)CNC(C)(C)C (stereo unspecified) [Cetamolol hydrochloride],inactive: -0.145,inactive: -0.636,inactive: 0.378
COc1ccc(Cl)c2c1CCCC2N(C)C (stereo unspecified),inactive: 2.46,inactive: -0.558,inactive: 0.544
Cc1ccc(-n2ccnc2)cc1C(=O)c1c(C)cc(C(=O)O)cc1C,inactive: -1.79,inactive: -1.66,inactive: 0.285
CCCc1nc(C)c2c(=O)[nH]c(-c3cc(S(=O)(=O)N4CCN(CC)CC4)ccc3OCC)nn12 [vardenafil hydrochloride],inactive: -1.21,inactive: -0.0997,inactive: 3.34
Nc1ccc(/C=C/C(=O)NCc2cc3cc(-c4ccc(C(=O)N5CCC(F)(F)CC5)cc4)cc(-c4ccc(F)cc4)c3o2)cn1,inactive: -0.213,inactive: -0.744,inactive: 2.62
Nc1ncnc2c1ncn2CCNCCCCCO,inactive: -0.652,inactive: -0.231,inactive: 0.0358
COc1cc2cc(/C(N)=N\O)sc2cc1OC,inactive: -0.318,inactive: -1.57,active: 9.7
CC(C)(C)NC(=O)[C@@H]1C[C@@H]2CCCC[C@@H]2CN1C[C@@H](O)[C@H](Cc1ccccc1)NC(=O)[C@@H](NC(=O)COc1cccnc1)C(C)(C)S(C)(=O)=O,inactive: 0.969,inactive: -0.882,inactive: -1.54
CC(C)c1ccc2oc3nc(N)c(C(=O)O)cc3c(=O)c2c1,inactive: -1.27,–,inactive: -1.61
"CC(C)c1ccc2oc3nc(N)c(C(=O)O)cc3c(=O)c2c1 [amlexanox, nasal]",–,inactive: -0.74,–
CC(C)(C)NC(=O)c1ccc(Oc2cc(F)c(CC(=O)O)cc2Cl)c(NS(=O)(=O)c2ccc(C#N)cc2)c1,inactive: -0.969,inactive: -0.67,inactive: -1.09

# Copied from the results shown for reference:
SMILES,TEAD-luciferase reporter activity (compound concentration: 200 nM),TEAD-luciferase reporter activity (compound concentration: 2 uM),TEAD-luciferase reporter activity (compound concentration: 10 uM)
Nc1nc2cc(C(F)(F)F)ccc2n1Cc1ccc(Cl)cc1,inactive: -1.09,inactive: -1.65,inactive: -0.202
NS(=O)(=O)c1cc2c(cc1Cl)N=C(CSCc1ccccc1)NS2(=O)=O,inactive: -0.418,inactive: 1.17,inactive: -1.07
CC(=O)NC(CO)C(O)c1ccc([N+](=O)[O-])cc1 (stereo unspecified),inactive: -0.7,inactive: 1.69,inactive: 0.0536
